For this test, the target named is Keyhole Limpet Hemocyanin, protein carrier. Put plainly: ELISA; carrier of the thiolated-S1P laydown exchanged between BSA and KLH, no significant difference in binding. On the technique in general: An ELISA detects its analyte on a solid surface through an enzyme-linked reagent.

Experimental findings from patent US20070281320A1 are described below.

No constants are given. Whether binding was seen depends on the method and setting.

B1: murine anti-S1P monoclonal antibody Sphingomab (hybridoma clone 306D326.26, ATCC SD-5362) (antibody, IgG1, V domains shown)
VH: QAHLQQSDAELVKPGASVKISCKVSGFIFIDHTIHWMKQRPEQGLEWIGCISPRHDITKYNEMFRGKATLTADKSSTTAYIQVNSLTFEDSAVYFCARGGFYGSTIWFDFWGQGTTLTVS
VL: ETTVTQSPASLSMAIGEKVTIRCITTTDIDDDMNWFQQKPGEPPNLLISEGNILRPGVPSRFSSSGYGTDFLFTIENMLSEDVADYYCLQSDNLPFTFGSGTKLEIK
B1: the binding entry is reported as “no binding”.
